Results taken from PubChem BioAssay AID588590 (National Center for Advancing Translational Sciences (NCATS), 2011).
Among all 390,000 compounds or so, about 4,000 (1%) were called active. This list was built around the results that the source calls inconclusive (neither active nor inactive); the mix of calls is not that of the screen. Calls come from the whole dose curve; as a rule, active = well fitted inhibition curve with a large enough effect; inconclusive = small, poorly fitted or top-dose-only effect, or another doubt; inactive = no such curve, though single readings can be large or run the other way. Potencies beside an inconclusive call are fits to weak or partial responses and may not hold up.
Potency is the fitted concentration of half-maximal effect.

By UniProt entry, the sequences of proteins in these tests, tags left out. Where a name states a change or a piece, a line headed by the entry shows the natural chain unless it says otherwise.
UniProt Q9UNA4: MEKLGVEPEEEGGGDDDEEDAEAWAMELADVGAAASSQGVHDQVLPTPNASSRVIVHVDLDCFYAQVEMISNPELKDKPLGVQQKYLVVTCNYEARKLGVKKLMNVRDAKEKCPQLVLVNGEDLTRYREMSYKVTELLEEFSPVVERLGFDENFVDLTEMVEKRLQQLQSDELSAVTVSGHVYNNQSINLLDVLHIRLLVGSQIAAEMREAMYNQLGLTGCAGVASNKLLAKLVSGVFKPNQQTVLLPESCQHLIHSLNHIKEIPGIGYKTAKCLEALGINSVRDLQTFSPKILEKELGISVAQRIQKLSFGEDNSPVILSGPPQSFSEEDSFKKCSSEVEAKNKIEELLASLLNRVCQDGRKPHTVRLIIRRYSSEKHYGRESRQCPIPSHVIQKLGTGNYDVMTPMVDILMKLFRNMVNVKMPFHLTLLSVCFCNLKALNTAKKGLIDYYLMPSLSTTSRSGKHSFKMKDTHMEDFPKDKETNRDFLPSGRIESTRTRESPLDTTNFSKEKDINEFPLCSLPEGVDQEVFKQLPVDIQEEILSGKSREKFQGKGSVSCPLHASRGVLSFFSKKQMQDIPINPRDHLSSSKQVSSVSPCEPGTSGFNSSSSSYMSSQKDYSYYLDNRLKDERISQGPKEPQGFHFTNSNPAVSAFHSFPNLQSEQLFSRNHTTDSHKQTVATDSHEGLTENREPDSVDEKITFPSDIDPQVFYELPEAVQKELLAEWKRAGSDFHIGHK

The compounds below were run against DNA polymerase iota (Homo sapiens) (UniProt Q9UNA4) (assay: qHTS for Inhibitors of Polymerase Iota). Details: Pol iota fluorescent replication assay, 10 min; series mostly up to 115 µM; activity, negative = inhibition: at the top concentration.
Procedure, shortened: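 Pol iota at 10 nM preincubated 15 min with compounds at room temperature; reaction started with fluorescent substrate, 50 nM final. Fluorescence read kinetically at 0 and 10 min; buffer-only wells as negative control.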
COc1ccc(S(=O)(=O)N2CC(C(=O)O)Oc3ccccc32)cc1 (stereo unspecified) was tested, and the Potency was inconclusive: 5.62 µM [inhibitor, full curve, poor fit]. In the case of CS(=O)(=O)c1cccc(C(=O)Nc2ccc(-c3nc4ccccc4[nH]3)cc2)c1, the Potency is reported as inconclusive: 50.1 µM [inhibitor, partial curve, poor fit]. With CCCCNC(=O)c1cc(-c2ccc(F)cc2)on1 the Potency was inconclusive: 79.4 µM [inhibitor, single point]. With O=C(C=Cc1ccccc1)c1cccs1 the Potency was inconclusive: 50.1 µM [inhibitor, partial curve, poor fit]. In the case of O=C(NCCSc1ccc(Br)cc1)c1ccc2nc[nH]c2c1, the Potency is reported as active: 20 µM. For Cc1ccc(C)c(NC2CCCCC2NS(=O)(=O)c2ccccc2)c1 (stereo unspecified), the Potency was inconclusive: 14.1 µM [inhibitor, partial curve, poor fit]. CC(C)Cn1nc(NC(=O)c2cccs2)c2cc3ccccc3nc21 was tested, and the Potency was inconclusive: 17.8 µM [inhibitor, partial curve, poor fit]. In the case of O=C(NCc1ccccc1)C1=C[C@@H](c2ccc(Br)cc2)C[C@@H](OCCCCO)O1, the “activity, negative = inhibition” value is reported as inactive: 8.33%. CCN1C(=O)[C@H]2[C@H]3CN=C(SCc4ccccc4)N3[C@@](Cc3ccccc3)(C(=O)OC)[C@H]2C1=O was tested, and the Potency was inconclusive: 22.4 µM [inhibitor, partial curve, poor fit]. With CCCN1CCN(CCNC(=O)Nc2cc(Cl)c(OC)cc2OC)CC1 the “activity, negative = inhibition” value was inactive: 13.9%. For Cc1c(NC(=O)NC(=O)c2ccc(F)cc2)c(=O)n(-c2ccccc2)n1C, the “activity, negative = inhibition” value was inactive: -0.604%. With N#C/C(=C\c1ccc(OCc2ccc(C(=O)O)cc2)cc1)C(=O)NCc1ccccc1 the Potency was inconclusive: 17.8 µM [inhibitor, single point]. COc1ccc(Cc2nnc(NC(=O)Nc3ccc(C)cc3)s2)cc1OC was tested, and the Potency was inconclusive: 31.6 µM [inhibitor, single point]. In the case of Nc1[nH][nH]c(=O)c1N=Nc1ccc2c(c1)OCO2, the Potency is reported as inconclusive: 1 µM [inhibitor, full curve, poor fit]. With CCOC(=O)c1c(C)[nH]c(C)c1S(=O)(=O)N(C)CC(=O)N1CCN(c2cccc(C)c2C)CC1 the “activity, negative = inhibition” value was inactive: 2.48%. For COc1cccc(C(=O)Nc2nc3nc(C)c(Cc4ccccc4)c(=O)n3[nH]2)c1, the “activity, negative = inhibition” value was inactive: -1.34%. With COc1cc2c(NC3CCN(C)CC3)nc(N3CCCN(C)CC3)nc2cc1OCCCN1CCCCC1 the Potency was inconclusive: 31.6 µM [inhibitor, partial curve, poor fit]. For Cc1cccc(N2C(=O)C(CC(=O)Nc3ccccc3)N(C3CCCCC3)C2=O)c1 (stereo unspecified), the Potency was inconclusive: 89.1 µM [inhibitor, single point]. For Cc1ccccc1-c1nc2sc(C)c(C)c2c(=O)o1, the Potency was inconclusive: 79.4 µM [inhibitor, single point]. With CCOc1ccc(NC(=O)Cn2c(=O)n(CC(=O)NCCc3ccccc3)c(=O)c3sccc32)cc1 the “activity, negative = inhibition” value was inactive: -3.33%. In the case of N#Cc1ccc(-c2cccnc2)nc1SCC(=O)Nc1sc2c(c1C#N)CCC2, the Potency is reported as active: 14.1 µM. In the case of CC(C)c1ccc(NC(=O)C(Cc2ccccc2)n2cccc2)cc1 (stereo unspecified), the Potency is reported as inconclusive: 17.8 µM [inhibitor, partial curve, poor fit]. In the case of CN(Cc1ccccc1)c1ccc(/C=C/c2nc3ccccc3s2)cc1, the Potency is reported as active: 89.1 µM. With COc1cc(/C=N/NC(=O)c2c(C)nnn2-c2nonc2N)ccc1O the Potency was inconclusive: 79.4 µM [inhibitor, single point]. With CC(=O)NC(Cc1c(F)c(F)c(F)c(F)c1F)C(=O)NCC(N)C(=O)c1ccccc1 (stereo unspecified) the “activity, negative = inhibition” value was inactive: -7.37%. With O=C(NCCCn1ccnc1)C(=O)Nc1ccccc1 the Potency was inconclusive: 39.8 µM [inhibitor, partial curve, poor fit]. With Cc1ccc(C(=O)SC2=NCCS2)cc1 the Potency was inconclusive: 25.1 µM [inhibitor, single point]. For COc1cccc(NC(=O)c2oc3ccccc3c2NC(=O)c2ccc(OC(C)C)cc2)c1, the “activity, negative = inhibition” value was inactive: -0.0332%. Cc1ccc(C(=O)Nc2nc(-c3ccco3)c(-c3ccco3)s2)o1 was tested, and the Potency was inconclusive: 12.6 µM [inhibitor, full curve, poor fit]. With COc1ccc(N(C(=O)CCl)C(C(=O)NCCc2ccccc2)c2cccs2)cc1 (stereo unspecified) the Potency was inconclusive: 79.4 µM [inhibitor, partial curve]. With NC(=O)CN1C(=O)/C(=c2\sc3nc(=O)c(Cc4ccccc4)nn3c2=O)c2ccccc21 the Potency was inconclusive: 39.8 µM [inhibitor, partial curve, poor fit]. N=C1C(c2nc3ccccc3[nH]2)=C(O)CN1c1ccc(CC(=O)O)cc1 was tested, and the Potency was inconclusive: 28.2 µM [inhibitor, partial curve]. With C/[N+]([O-])=C\c1ccc([N+](=O)[O-])o1 the Potency was inconclusive: 56.2 µM [inhibitor, partial curve, poor fit]. For COc1ccc(/C=C2\CCc3ccccc3C2=O)cc1Cn1nc(C)cc1C, the Potency was inconclusive: 31.6 µM [inhibitor, single point]. COC(CNC(=O)c1ccc(-n2c(=S)[nH]c3ccccc3c2=O)cc1)OC was tested, and the “activity, negative = inhibition” value was inactive: 70.7%. With Cc1ccc(NC(=O)C2CCN(C(=O)c3cnn(-c4ccccc4)c3-n3cccc3)CC2)cc1Cl the “activity, negative = inhibition” value was inactive: 6.59%. With COCCCn1c2nc3ccccc3nc2c2c(=O)n(CC3CCCO3)cnc21 (stereo unspecified) the “activity, negative = inhibition” value was inactive: 11.1%. CC1=C(C(=O)Nc2ccc(C)cc2C)C(c2cccs2)n2nc(SCc3ccc(Cl)cc3)nc2N1 (stereo unspecified) was tested, and the Potency was inconclusive: 89.1 µM [inhibitor, single point]. With CCN(CC)CC(=O)c1c(C)n(C)c2ccc(OC)cc12 the Potency was inconclusive: 89.1 µM [inhibitor, single point]. For Nc1nnc(CC2=CCCCC2)s1, the Potency was inconclusive: 25.1 µM [inhibitor, partial curve, poor fit]. In the case of CCCCOc1ccc(C(=O)NCC(=O)NNC(=O)C2COc3ccccc3O2)cc1 (stereo unspecified), the Potency is reported as inconclusive: 70.8 µM [inhibitor, partial curve]. For CCCCN1CCC(=O)C(C(=O)OCC)=C1C(=O)OCC, the “activity, negative = inhibition” value was inactive: 3.66%. With O=C(Nc1cccc(Cl)c1)Nc1nnc(-c2ccncc2)s1 the Potency was inconclusive: 100 µM [inhibitor, partial curve, poor fit]. For N#CC(C#N)=Cc1ccc(-c2ccc(S(=O)(=O)N=C(N)N)cc2)o1, the Potency was inconclusive: 17.8 µM [inhibitor, full curve]. In the case of O=C1NC(=Nc2ccccc2Cl)S/C1=C\c1ccc(C(=O)O)cc1, the “activity, negative = inhibition” value is reported as inactive: -0.409%. CCC(=O)N1CCc2cc(S(=O)(=O)NC(Cc3ccccc3)C(=O)NCc3cccc(OC)c3)ccc21 (stereo unspecified) was tested, and the Potency was inconclusive: 70.8 µM [inhibitor, partial curve, poor fit]. With CC1=C(c2ccc(F)cc2)S(=O)(=O)NC1=NCc1ccccc1Cl the Potency was inconclusive: 50.1 µM [inhibitor, partial curve]. In the case of Cc1cc(N/N=C/c2ccc(F)cc2)nc(NCc2ccccc2)n1, the “activity, negative = inhibition” value is reported as inactive: 88.1%. For CSCCC(NC(=O)c1ccc(Cl)cc1)C(=O)OCC(=O)Nc1ccc(C#N)cc1 (stereo unspecified), the “activity, negative = inhibition” value was inactive: -10.3%. COc1ccc(NC(=O)[C@@H]2[C@@H]3C(=O)N(C4CCCCC4)C(=O)[C@@H]3C3c4ccccc4C=CN32)cc1 (stereo partly specified) was tested, and the Potency was inconclusive: 12.6 µM [inhibitor, partial curve, poor fit]. With CCOC(=O)c1nc2sc3c(c2c(=O)[nH]1)CCCC3 the “activity, negative = inhibition” value was inactive: 11.4%. With N#Cc1c(-n2ncnc2-c2ccccc2Cl)sc2c1CCCCC2 the “activity, negative = inhibition” value was inactive: -19.1%. In the case of COc1ccc(C2CC(=O)Oc3c(C(CCN4CCOCC4)c4ccc5c(c4)OCO5)c(OC)cc(OC)c32)cc1 (stereo unspecified), the Potency is reported as inconclusive: 100 µM [inhibitor, single point]. COC(=O)c1sc(=S)n(-c2ccccc2OC)c1N was tested, and the Potency was inconclusive: 89.1 µM [inhibitor, single point]. Cc1ccc(/C=C2\SC(=S)N(/N=C/c3cc([N+](=O)[O-])ccc3O)C2=O)o1 was tested, and the Potency was active: 4.47 µM. In the case of Nc1c(-c2ccccc2)cnn1-c1ccc(C(=O)O)cc1, the Potency is reported as inconclusive: 100 µM [inhibitor, single point]. CC1=C(C(=O)Nc2cccc(F)c2)C2(CCCCC2)OC1=O was tested, and the Potency was inconclusive: 89.1 µM [inhibitor, single point]. In the case of CCN(CC)CCNC(=S)Nc1ccc2nc(N3CCOCC3)cc(C)c2c1, the Potency is reported as inconclusive: 7.08 µM [inhibitor, partial curve, poor fit]. In the case of COc1ccc(NC(=O)c2ccc3c(c2)OCO3)cc1S(=O)(=O)N1CCOCC1, the Potency is reported as inconclusive: 100 µM [inhibitor, single point]. In the case of O=C(N/N=C/c1ccc(-c2ccccc2[N+](=O)[O-])o1)[C@H]1C[C@@H]1c1ccccc1, the Potency is reported as inconclusive: 20 µM [inhibitor, single point]. With Nc1nc(CN2CCCCCC2)nc(Nc2ccccc2)n1 the “activity, negative = inhibition” value was inactive: 14.4%. Cc1cccc(S(=O)(=O)C(C#N)c2nc3ccccc3nc2N2CC(C)OC(C)C2)c1 (stereo unspecified) was tested, and the Potency was inconclusive: 79.4 µM [inhibitor, partial curve, poor fit]. In the case of Cc1ccc(S(=O)(=O)N2CCCN(S(=O)(=O)c3ccc(C)cc3)CC2)cc1, the Potency is reported as inconclusive: 35.5 µM [inhibitor, partial curve, poor fit]. For CNC(=O)c1cc2cc(OC)ccc2n1CCN(Cc1ccccc1)Cc1ccccc1, the Potency was inconclusive: 100 µM [inhibitor, partial curve, poor fit]. In the case of O=C(NCc1csc(-c2cccs2)n1)C1CC1, the Potency is reported as inconclusive: 89.1 µM [inhibitor, partial curve, poor fit]. With CCOc1ccc(C2CC(=O)c3c([nH]c(C(=O)OC)c3C)C2)cc1OC (stereo unspecified) the “activity, negative = inhibition” value was inactive: 13.3%.
